# Data reported in patent US20040043442A1, “Use of betaine in functional products having blood pressure lowering effects” (Finnfeeds Finland Oy, priority 2001, published 2004).
# Tests used:
# [1] = test system: folate; assay: Folate concentration of plasma and erythrocytes (fluorescence polarization immunometric Imx-method); type: in vivo, human; conditions: betaine group
# Description: (§1) The effects of betaine supplementation on blood pressure, and in addition on body weight, body composition, resting energy expenditure, and concentrations of serum total and lipoprotein lipids and plasma homocysteine in humans, were studied. The participants were healthy, obese adults with normal blood pressure.
# (§2) Forty-two subjects (14 males, 28 females) without any chronic disease and with normal liver, kidney and thyroid function participated in the study. The inclusion criteria for body mass index (BMI) was 28-40 kg/m^2 and for age 25-60 years. Serum concentration of total triglycerides had to be <3.5 mmol/l and that of total cholesterol <7.5 mmol/l. Inclusion criteria for fasting concentration of plasma glucose was <6.7 mmol/l. Subjects with lipid lowering medication were excluded as well women with perimenopause. Four women were postmenopausal in the control group and 6 were postmenopausal in the betaine group. None of the participants were on a medication for hypertension.
# The study was a controlled, randomized double-blinded parallel study. […] Grapefruit juice was added to simulate the bitter taste of betaine. The subjects were on their regular eucaloric diet during this period. […]
# Folate concentration of plasma and erythrocytes was determined by the fluorescence polarization immunometric Imx-method (Abbott Laboratories, IL).
# [2] = Body weight and BMI in the intervention study; type: in vivo, human
# Description: as §1, §2
# The study was a controlled, randomized double-blinded parallel study. […] Grapefruit juice was added to simulate the bitter taste of betaine. The subjects were on their regular eucaloric diet during this period. For the intervention period with a hypocaloric (−2100 kJ or −500 kcal) diet the subjects were randomly assigned in two groups (20 for the control group, 22 for the betaine group). The subjects were matched for BMI, gender and menstrual cycle.
# The control group consumed orange juice 1 dl twice a day and the betaine group consumed betaine enriched orange juice 1 dl twice a day. The amount of betaine was 3 g per 1 dl orange juice, giving a daily betaine dose of 6 g.
# Body weight was measured using the same calibrated electronic scale throughout the study. Body composition was measured by a bioelectric impedance (BIA 101S with Bodygram software, Akern S.r.I. Biosearch, Italy).
smiles,measurement,setting,value
"C[N+](C)(C)CC(=O)[O-] [Betaine, trimethylglycine]",Folate concentration in erythrocytes (result in words),[1]; P=0.024,decreased significantly
same,Fasting plasma folate concentration (result in words),[1]; during the study,did not change
same,Body weight,"[2]; 4 wk (beginning of intervention period), betaine group",95.7 ± 11.3 kg
same,Change in BMI in the intervention period,"[2]; 12-week intervention, betaine 6 g daily, P=0.230 vs control group",−0.7 ± 1.1 kg/m^2
same,Change in body weight in the intervention period,"[2]; 12-week intervention, betaine 6 g daily, P=0.303 vs control group",-2.2 ± 3.2 kg
same,Body weight,"[2]; 16 wk (end of intervention period), betaine 6 g daily, hypocaloric diet, P=0.004 vs 4 wk",93.5 ± 11.1 kg
same,Changes in body weight and BMI compared between the groups (result in words),"[2]; betaine group vs control group, intervention period",no significant differences were found
